Key:
[1] = target: T1, HA-RB wild-type (pCMV HA hRB-wt) (human, UniProt P06400 1-928); test: co-IP from transfected DU145 cells, western blot (FIG. 2E)
T1 construct: Ectopically expressed in DU145 or PC-3 cells; also called wild-type RB; not shown: HA tag
T1 sequence (looked up): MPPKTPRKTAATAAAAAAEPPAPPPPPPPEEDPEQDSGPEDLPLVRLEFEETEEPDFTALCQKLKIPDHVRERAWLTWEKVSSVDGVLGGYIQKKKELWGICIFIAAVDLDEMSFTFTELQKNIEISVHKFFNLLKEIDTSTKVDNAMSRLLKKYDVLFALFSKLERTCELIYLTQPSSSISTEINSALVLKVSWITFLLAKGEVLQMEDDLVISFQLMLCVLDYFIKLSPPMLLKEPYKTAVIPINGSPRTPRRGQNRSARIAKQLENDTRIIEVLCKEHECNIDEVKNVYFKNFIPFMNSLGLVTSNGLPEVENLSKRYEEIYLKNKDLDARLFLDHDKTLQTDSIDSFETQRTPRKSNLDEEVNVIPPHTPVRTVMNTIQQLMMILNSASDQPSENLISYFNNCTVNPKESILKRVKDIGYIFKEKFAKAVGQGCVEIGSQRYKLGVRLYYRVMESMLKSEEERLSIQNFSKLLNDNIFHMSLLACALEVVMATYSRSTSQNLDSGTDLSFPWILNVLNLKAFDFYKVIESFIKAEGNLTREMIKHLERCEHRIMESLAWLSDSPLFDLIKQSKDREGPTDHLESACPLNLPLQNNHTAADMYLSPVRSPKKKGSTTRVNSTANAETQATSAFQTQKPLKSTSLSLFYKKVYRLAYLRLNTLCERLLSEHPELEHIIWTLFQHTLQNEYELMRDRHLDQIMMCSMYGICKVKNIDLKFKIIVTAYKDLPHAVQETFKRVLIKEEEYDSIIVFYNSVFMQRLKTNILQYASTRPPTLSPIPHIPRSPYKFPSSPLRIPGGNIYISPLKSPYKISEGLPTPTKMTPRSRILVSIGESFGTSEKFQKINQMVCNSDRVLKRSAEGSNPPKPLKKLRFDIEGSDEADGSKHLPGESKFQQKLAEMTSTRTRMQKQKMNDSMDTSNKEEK

[2] = target: T2, retinoblastoma protein RB (endogenous) (human, UniProt P06400 2-928); test: co-IP from PC-3 cells with or without palbociclib (5 µM, 24 hours) (FIG. 2F)
T2 construct: Endogenous protein of cell lysates, phosphorylation state as in the cells; also called RB1; endogenous RB
T2 sequence (looked up): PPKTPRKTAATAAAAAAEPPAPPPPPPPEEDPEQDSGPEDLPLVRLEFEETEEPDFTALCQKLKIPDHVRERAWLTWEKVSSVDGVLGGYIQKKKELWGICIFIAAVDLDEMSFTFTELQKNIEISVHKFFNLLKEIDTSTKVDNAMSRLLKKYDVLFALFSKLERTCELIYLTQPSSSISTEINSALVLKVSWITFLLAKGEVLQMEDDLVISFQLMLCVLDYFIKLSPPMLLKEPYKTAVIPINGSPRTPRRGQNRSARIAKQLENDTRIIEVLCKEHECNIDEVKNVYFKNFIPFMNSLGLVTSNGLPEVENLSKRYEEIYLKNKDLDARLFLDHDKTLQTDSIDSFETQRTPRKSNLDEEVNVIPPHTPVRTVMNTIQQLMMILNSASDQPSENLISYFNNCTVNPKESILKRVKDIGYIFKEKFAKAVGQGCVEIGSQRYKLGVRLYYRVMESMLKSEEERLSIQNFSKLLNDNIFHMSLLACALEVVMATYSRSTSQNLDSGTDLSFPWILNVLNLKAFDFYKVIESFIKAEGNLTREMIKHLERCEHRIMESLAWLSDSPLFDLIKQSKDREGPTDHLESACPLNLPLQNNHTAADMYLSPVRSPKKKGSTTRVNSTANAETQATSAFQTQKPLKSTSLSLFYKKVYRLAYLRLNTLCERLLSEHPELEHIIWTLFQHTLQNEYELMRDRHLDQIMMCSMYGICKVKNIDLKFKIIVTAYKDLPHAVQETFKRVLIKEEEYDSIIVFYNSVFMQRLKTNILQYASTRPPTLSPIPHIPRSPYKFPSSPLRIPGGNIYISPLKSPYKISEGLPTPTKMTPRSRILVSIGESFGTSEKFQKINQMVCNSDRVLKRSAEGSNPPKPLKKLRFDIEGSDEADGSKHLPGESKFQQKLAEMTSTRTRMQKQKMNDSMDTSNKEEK

binding result [1]: binds | binding result [2]: binds
B1: E2F1 (other, human, UniProt Q01094 1-437, looked up)
chain: MALAGAPAGGPCAPALEALLGAGALRLLDSSQIVIISAAQDASAPPAPTGPAAPAAGPCDPDLLLFATPQAPRPTPSAPRPALGRPPVKRRLDLETDHQYLAESSGPARGRGRHPGKGVKSPGEKSRYETSLNLTTKRFLELLSHSADGVVDLNWAAEVLKVQKRRIYDITNVLEGIQLIAKKSKNHIQWLGSHTTVGVGGRLEGLTQDLRQLQESEQQLDHLMNICTTQLRLLSEDTDSQRLAYVTCQDLRSIADPAEQMVMVIKAPPETQLQAVDSSENFQISLKSKQGPIDVFLCPEETVGGISPGKTPSQEVTSEEENRATDSATIVSPPPSSPPSSLTTDPSQSLLSLEQEPLLSRMGSLRAPVDEDRLSPLVAADSLLEHVREDFSGLLPEEFISLSPPHEALDYHFGLEEGEGIRDLFDCDFGDLTPLDF

From patent US20210401931A1 (MAYO FOUNDATION FOR MEDICAL EDUCATION AND RESEARCH, published 2021)
